The values below come from publication PMC5489516.

These are yes or no findings as the source states them, for the method shown. Binding seen in cells or lysates may run through a third protein. For some of these results: Binding can be weak; no strength is given.

Assay [1] deals with tankyrase (TNKS), endogenous (human (endogenous in HT29, SW480, RKO)). Kind of assay: proximity ligation; in situ PLA (DuoLink) of endogenous TNKS and PrxII in RKO cells.
The target is the same in assay [2]. The assay is described as follows: co-IP; lysate of APC-competent RKO cells, IP of endogenous TNKS with anti-TNKS antibody, immunoblot. In general terms: Immunoblotting shows a protein as a band on a membrane.
Assay [3] shares this target. The assay is described as follows: co-IP; lysates of APC-mutant HT29 and SW480 cells, IP of endogenous TNKS with anti-TNKS antibody, immunoblot.
Assay [4] shares this target. Kind of assay: proximity ligation; in situ PLA (DuoLink) of endogenous TNKS and PrxII in HT29 and SW480 cells; PrxII-depleted cells as negative control.

B1: peroxiredoxin type II (PrxII), endogenous (enzyme, UniProt P32119 1-198)
chain: MASGNARIGKPAPDFKATAVVDGAFKEVKLSDYKGKYVVLFFYPLDFTFVCPTEIIAFSNRAEDFRKLGCEVLGVSVDSQFTHLAWINTPRKEGGLGPLNIPLLADVTRRLSEDYGVLKTDEGIAYRGLFIIDGKGVLRQITVNDLPVGRSVDEALRLVQAFQYTDEHGEVCPAGWKPGSDTIKPNVDDSKEYFSKHN
In the case of B1, the binding result in assay [1] is “no binding (only in RKO cells)”; in assay [2], “no binding (only in APC-competent RKO cells)”; in assay [3] it was “binds”; in assay [4] it was “binds”.
